Measurements reported in PubChem BioAssay AID1259254 (NCATS, 2017).

Test: 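Finding genes that stop cells copying their DNA twice in one cycle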 (primary screen)
System: human HCT116 colorectal cancer cells
Reagent: single siRNA against human genes
Duration: 3 days
Detection: 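Nuclei stained with Hoechst and imaged; cell-cycle phase assigned by DNA content; G2 share scaled per plate, non-targeting siRNA 0%, GMNN siRNA 100%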
Scale: G2 robust z-score and G2 cells, % of GMNN control: higher = more G2 cells, more excess DNA replication
Hit rule: 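Active siRNAs have a G2 robust z of 5 or more median absolute deviations over the median, which in these data means about 38% or higher of GMNN control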
The whole screen tested about 59,000 reagents; below is a part drawn at random. About 1,550 of them (2.6%) count as active. 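G2 share is only a proxy for re-replication; each gene was hit by three separate siRNAs, and active genes were retested.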 Unmarked entries are inactive. The numbers tell different reagents against one gene apart. Not all columns of the deposit are shown. Reagent sequences are not shown. The record does not give: the amount of reagent.

Target gene | reagent no. | G2 robust z-score | G2 cells, % of GMNN control
HHLA2 (HHLA2 member of B7 family) | 1 | -0.0799 | 2.41
HHLA2 (HHLA2 member of B7 family) | 2 | 0.984 | 9.89
HHLA2 (HHLA2 member of B7 family) | 3 | -1.09 | -4.7
GTPBP3 (GTP binding protein 3, mitochondrial) | 1 | -0.907 | -3.41
GTPBP3 (GTP binding protein 3, mitochondrial) | 2 | -0.947 | -3.69
GTPBP3 (GTP binding protein 3, mitochondrial) | 3 | -0.611 | -1.33
NUBP2 (NUBP iron-sulfur cluster assembly factor 2, cytosolic) | 1 | 0.686 | 7.8
NUBP2 (NUBP iron-sulfur cluster assembly factor 2, cytosolic) | 2 | -0.703 | -1.98
NUBP2 (NUBP iron-sulfur cluster assembly factor 2, cytosolic) | 3 | -0.0139 | 2.87
WASHC2FP (WASHC2F, pseudogene) | 1 | -0.522 | -0.708
WASHC2FP (WASHC2F, pseudogene) | 2 | 0.307 | 5.13
WASHC2FP (WASHC2F, pseudogene) | 3 | -0.00858 | 2.91
C11orf68 (chromosome 11 open reading frame 68) | 1 | -0.836 | -2.92
C11orf68 (chromosome 11 open reading frame 68) | 2 | -0.492 | -0.494
C11orf68 (chromosome 11 open reading frame 68) | 3 | 0.988 | 9.92
TBCC (tubulin folding cofactor C) | 1 | -0.384 | 0.263
TBCC (tubulin folding cofactor C) | 2 | 0.121 | 3.82
TBCC (tubulin folding cofactor C) | 3 | -0.431 | -0.0681
IQGAP1 (IQ motif containing GTPase activating protein 1) | 1 | -0.755 | -2.35
IQGAP1 (IQ motif containing GTPase activating protein 1) | 2 | -0.972 | -3.87
IQGAP1 (IQ motif containing GTPase activating protein 1) | 3 | -1.31 | -6.25
PADI2 (peptidyl arginine deiminase 2) | 1 | 1.71 | 15
PADI2 (peptidyl arginine deiminase 2) | 2 | 0.425 | 5.95
PADI2 (peptidyl arginine deiminase 2) | 3 | -0.634 | -1.49
SMIM19 (small integral membrane protein 19) | 1 | -0.57 | -1.04
SMIM19 (small integral membrane protein 19) | 2 | 0.0473 | 3.3
SMIM19 (small integral membrane protein 19) | 3 | -0.635 | -1.5
MYBL2 (MYB proto-oncogene like 2) | 1 | 2.42 | 20
MYBL2 (MYB proto-oncogene like 2) | 2 | -0.532 | -0.775
MYBL2 (MYB proto-oncogene like 2) | 3 | 0.229 | 4.58
DDX25 (DEAD-box helicase 25) | 1 | 0.792 | 8.54
DDX25 (DEAD-box helicase 25) | 2 | -0.294 | 0.897
DDX25 (DEAD-box helicase 25) | 3 | 2.83 | 22.8
MYORG (myogenesis regulating glycosidase) | 1 | 1.42 | 13
MYORG (myogenesis regulating glycosidase) | 2 | -0.676 | -1.79
MYORG (myogenesis regulating glycosidase) | 3 | 1.49 | 13.4

In a second layout: entries from further up
| Target gene | reagent no. | G2 robust z-score | G2 cells, % of GMNN control |
| --- | --- | --- | --- |
| PADI2 (peptidyl arginine deiminase 2) | 3 | -0.634 | -1.49 |
| SMIM19 (small integral membrane protein 19) | 1 | -0.57 | -1.04 |
| SMIM19 (small integral membrane protein 19) | 2 | 0.0473 | 3.3 |
| SMIM19 (small integral membrane protein 19) | 3 | -0.635 | -1.5 |
| MYBL2 (MYB proto-oncogene like 2) | 1 | 2.42 | 20 |
| MYBL2 (MYB proto-oncogene like 2) | 2 | -0.532 | -0.775 |
| MYBL2 (MYB proto-oncogene like 2) | 3 | 0.229 | 4.58 |
| DDX25 (DEAD-box helicase 25) | 1 | 0.792 | 8.54 |
| DDX25 (DEAD-box helicase 25) | 2 | -0.294 | 0.897 |
| DDX25 (DEAD-box helicase 25) | 3 | 2.83 | 22.8 |
| MYORG (myogenesis regulating glycosidase) | 1 | 1.42 | 13 |

Further reagents follow.
Target gene | reagent no. | G2 robust z-score | G2 cells, % of GMNN control
TUFT1 (tuftelin 1) | 1 | -0.559 | -0.964
TUFT1 (tuftelin 1) | 2 | 2.29 | 19.1
TUFT1 (tuftelin 1) | 3 | -0.628 | -1.45
MS4A6A (membrane spanning 4-domains A6A) | 1 | -0.76 | -2.38
MS4A6A (membrane spanning 4-domains A6A) | 2 | -1.36 | -6.62
MS4A6A (membrane spanning 4-domains A6A) | 3 | 1.83 | 15.9
TGIF1 (TGFB induced factor homeobox 1) | 1 | 1.6 | 14.2
TGIF1 (TGFB induced factor homeobox 1) | 2 | 1.34 | 12.4
TGIF1 (TGFB induced factor homeobox 1) | 3 | -0.183 | 1.68
PPP1R2 (protein phosphatase 1 regulatory inhibitor subunit 2) | 1 | 0.17 | 4.17
PPP1R2 (protein phosphatase 1 regulatory inhibitor subunit 2) | 2 | -0.374 | 0.337
PPP1R2 (protein phosphatase 1 regulatory inhibitor subunit 2) | 3 | -0.268 | 1.08
PAPPA (pappalysin 1) | 1 | 4.72 | 36.2
PAPPA (pappalysin 1) | 2 | -0.0054 | 2.93
PAPPA (pappalysin 1) | 3 | 2.3 | 19.2
C12orf42 (chromosome 12 open reading frame 42) | 1 | -0.466 | -0.311
C12orf42 (chromosome 12 open reading frame 42) | 2 | -0.418 | 0.0259
C12orf42 (chromosome 12 open reading frame 42) | 3 | 1.9 | 16.3
GABRE (gamma-aminobutyric acid type A receptor subunit epsilon) | 1 | -0.254 | 1.18
GABRE (gamma-aminobutyric acid type A receptor subunit epsilon) | 2 | -0.47 | -0.341
GABRE (gamma-aminobutyric acid type A receptor subunit epsilon) | 3 | 0.0412 | 3.26
SHCBP1L (SHC binding and spindle associated 1 like) | 1 | -0.559 | -0.968
SHCBP1L (SHC binding and spindle associated 1 like) | 2 | -0.177 | 1.72
SHCBP1L (SHC binding and spindle associated 1 like) | 3 | -0.0414 | 2.68
FBXO9 (F-box protein 9) | 1 | 3.78 | 29.6
FBXO9 (F-box protein 9) | 2 | 0.746 | 8.22
FBXO9 (F-box protein 9) | 3 | 0.108 | 3.73
SPEM2 (SPEM family member 2) | 1 | 8.24 (active) | 60.9
SPEM2 (SPEM family member 2) | 2 | -0.315 | 0.749
SPEM2 (SPEM family member 2) | 3 | -0.28 | 0.998
RNF167 (ring finger protein 167) | 1 | 2.67 | 21.7
RNF167 (ring finger protein 167) | 2 | 0.685 | 7.79
RNF167 (ring finger protein 167) | 3 | 0.617 | 7.31
FTH1 (ferritin heavy chain 1) | 1 | 0.00746 | 3.02
FTH1 (ferritin heavy chain 1) | 2 | -0.666 | -1.72
FTH1 (ferritin heavy chain 1) | 3 | 12.3 (active) | 89.5
RTN4 (reticulon 4) | 1 | -0.948 | -3.7
RTN4 (reticulon 4) | 2 | 0.93 | 9.51
RTN4 (reticulon 4) | 3 | -0.488 | -0.467
COTL1 (coactosin like F-actin binding protein 1) | 1 | -0.193 | 1.61
COTL1 (coactosin like F-actin binding protein 1) | 2 | 0.462 | 6.21
COTL1 (coactosin like F-actin binding protein 1) | 3 | 0.79 | 8.52
NOVA1 (NOVA alternative splicing regulator 1) | 1 | -0.353 | 0.483
NOVA1 (NOVA alternative splicing regulator 1) | 2 | 2.21 | 18.5
NOVA1 (NOVA alternative splicing regulator 1) | 3 | -1.2 | -5.49
SPATA12 (spermatogenesis associated 12) | 1 | -1.12 | -4.9
SPATA12 (spermatogenesis associated 12) | 2 | 2.28 | 19
SPATA12 (spermatogenesis associated 12) | 3 | 1.9 | 16.3
TIGD1 (tigger transposable element derived 1) | 1 | -1.02 | -4.21
TIGD1 (tigger transposable element derived 1) | 2 | 0.123 | 3.83
TIGD1 (tigger transposable element derived 1) | 3 | 3.34 | 26.5
